Hit rate of the full screen: of about 290,000 compounds, about 110 (0.038%) were called active. This list was built around the results that the source calls inconclusive (neither active nor inactive); the mix of calls is not that of the screen. The call rests on the fitted dose curve; in most records, active means well fitted inhibition curve with a large enough effect in the polarisation, with a control signal flat (not every such curve was filed as active); inconclusive means small, poorly fitted or top-dose-only effect, or effect the other way, or a change in a side signal; inactive means no such curve, though single readings can be large or run the other way; the % refers to the polarisation. Where the call is inconclusive, the potency comes from a doubtful curve fit. A note “side channel” means that the fit belongs to a control or component signal, not to the main read-out.
Target: Histone-lysine N-methyltransferase 2A (Homo sapiens) (UniProt Q03164)
Assay: qHTS Fluorescence Polarization Assay for Inhibitors of MLL CXXC domain - DNA interaction
Settings: MLL-CXXC / FITC-HOXA9 DNA fluorescence polarization; series mostly up to 115 µM
How it was run: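 Steps: dispense CXXC domain solution (7 uM) → pin compounds or unlabeled HOX-A9 DNA control → 5 min ambient → add FLSN-HOX-A9 solution (50 nM) → spin → 30 min ambient → fluorescence polarization. Tris pH 7.5/NaCl/DTT/BSA buffer.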
Potency means the concentration at half of the fitted maximal effect.

The chains behind the UniProt entries cited, without tags or fusion partners.
UniProt Q03164, whole entry, looked up: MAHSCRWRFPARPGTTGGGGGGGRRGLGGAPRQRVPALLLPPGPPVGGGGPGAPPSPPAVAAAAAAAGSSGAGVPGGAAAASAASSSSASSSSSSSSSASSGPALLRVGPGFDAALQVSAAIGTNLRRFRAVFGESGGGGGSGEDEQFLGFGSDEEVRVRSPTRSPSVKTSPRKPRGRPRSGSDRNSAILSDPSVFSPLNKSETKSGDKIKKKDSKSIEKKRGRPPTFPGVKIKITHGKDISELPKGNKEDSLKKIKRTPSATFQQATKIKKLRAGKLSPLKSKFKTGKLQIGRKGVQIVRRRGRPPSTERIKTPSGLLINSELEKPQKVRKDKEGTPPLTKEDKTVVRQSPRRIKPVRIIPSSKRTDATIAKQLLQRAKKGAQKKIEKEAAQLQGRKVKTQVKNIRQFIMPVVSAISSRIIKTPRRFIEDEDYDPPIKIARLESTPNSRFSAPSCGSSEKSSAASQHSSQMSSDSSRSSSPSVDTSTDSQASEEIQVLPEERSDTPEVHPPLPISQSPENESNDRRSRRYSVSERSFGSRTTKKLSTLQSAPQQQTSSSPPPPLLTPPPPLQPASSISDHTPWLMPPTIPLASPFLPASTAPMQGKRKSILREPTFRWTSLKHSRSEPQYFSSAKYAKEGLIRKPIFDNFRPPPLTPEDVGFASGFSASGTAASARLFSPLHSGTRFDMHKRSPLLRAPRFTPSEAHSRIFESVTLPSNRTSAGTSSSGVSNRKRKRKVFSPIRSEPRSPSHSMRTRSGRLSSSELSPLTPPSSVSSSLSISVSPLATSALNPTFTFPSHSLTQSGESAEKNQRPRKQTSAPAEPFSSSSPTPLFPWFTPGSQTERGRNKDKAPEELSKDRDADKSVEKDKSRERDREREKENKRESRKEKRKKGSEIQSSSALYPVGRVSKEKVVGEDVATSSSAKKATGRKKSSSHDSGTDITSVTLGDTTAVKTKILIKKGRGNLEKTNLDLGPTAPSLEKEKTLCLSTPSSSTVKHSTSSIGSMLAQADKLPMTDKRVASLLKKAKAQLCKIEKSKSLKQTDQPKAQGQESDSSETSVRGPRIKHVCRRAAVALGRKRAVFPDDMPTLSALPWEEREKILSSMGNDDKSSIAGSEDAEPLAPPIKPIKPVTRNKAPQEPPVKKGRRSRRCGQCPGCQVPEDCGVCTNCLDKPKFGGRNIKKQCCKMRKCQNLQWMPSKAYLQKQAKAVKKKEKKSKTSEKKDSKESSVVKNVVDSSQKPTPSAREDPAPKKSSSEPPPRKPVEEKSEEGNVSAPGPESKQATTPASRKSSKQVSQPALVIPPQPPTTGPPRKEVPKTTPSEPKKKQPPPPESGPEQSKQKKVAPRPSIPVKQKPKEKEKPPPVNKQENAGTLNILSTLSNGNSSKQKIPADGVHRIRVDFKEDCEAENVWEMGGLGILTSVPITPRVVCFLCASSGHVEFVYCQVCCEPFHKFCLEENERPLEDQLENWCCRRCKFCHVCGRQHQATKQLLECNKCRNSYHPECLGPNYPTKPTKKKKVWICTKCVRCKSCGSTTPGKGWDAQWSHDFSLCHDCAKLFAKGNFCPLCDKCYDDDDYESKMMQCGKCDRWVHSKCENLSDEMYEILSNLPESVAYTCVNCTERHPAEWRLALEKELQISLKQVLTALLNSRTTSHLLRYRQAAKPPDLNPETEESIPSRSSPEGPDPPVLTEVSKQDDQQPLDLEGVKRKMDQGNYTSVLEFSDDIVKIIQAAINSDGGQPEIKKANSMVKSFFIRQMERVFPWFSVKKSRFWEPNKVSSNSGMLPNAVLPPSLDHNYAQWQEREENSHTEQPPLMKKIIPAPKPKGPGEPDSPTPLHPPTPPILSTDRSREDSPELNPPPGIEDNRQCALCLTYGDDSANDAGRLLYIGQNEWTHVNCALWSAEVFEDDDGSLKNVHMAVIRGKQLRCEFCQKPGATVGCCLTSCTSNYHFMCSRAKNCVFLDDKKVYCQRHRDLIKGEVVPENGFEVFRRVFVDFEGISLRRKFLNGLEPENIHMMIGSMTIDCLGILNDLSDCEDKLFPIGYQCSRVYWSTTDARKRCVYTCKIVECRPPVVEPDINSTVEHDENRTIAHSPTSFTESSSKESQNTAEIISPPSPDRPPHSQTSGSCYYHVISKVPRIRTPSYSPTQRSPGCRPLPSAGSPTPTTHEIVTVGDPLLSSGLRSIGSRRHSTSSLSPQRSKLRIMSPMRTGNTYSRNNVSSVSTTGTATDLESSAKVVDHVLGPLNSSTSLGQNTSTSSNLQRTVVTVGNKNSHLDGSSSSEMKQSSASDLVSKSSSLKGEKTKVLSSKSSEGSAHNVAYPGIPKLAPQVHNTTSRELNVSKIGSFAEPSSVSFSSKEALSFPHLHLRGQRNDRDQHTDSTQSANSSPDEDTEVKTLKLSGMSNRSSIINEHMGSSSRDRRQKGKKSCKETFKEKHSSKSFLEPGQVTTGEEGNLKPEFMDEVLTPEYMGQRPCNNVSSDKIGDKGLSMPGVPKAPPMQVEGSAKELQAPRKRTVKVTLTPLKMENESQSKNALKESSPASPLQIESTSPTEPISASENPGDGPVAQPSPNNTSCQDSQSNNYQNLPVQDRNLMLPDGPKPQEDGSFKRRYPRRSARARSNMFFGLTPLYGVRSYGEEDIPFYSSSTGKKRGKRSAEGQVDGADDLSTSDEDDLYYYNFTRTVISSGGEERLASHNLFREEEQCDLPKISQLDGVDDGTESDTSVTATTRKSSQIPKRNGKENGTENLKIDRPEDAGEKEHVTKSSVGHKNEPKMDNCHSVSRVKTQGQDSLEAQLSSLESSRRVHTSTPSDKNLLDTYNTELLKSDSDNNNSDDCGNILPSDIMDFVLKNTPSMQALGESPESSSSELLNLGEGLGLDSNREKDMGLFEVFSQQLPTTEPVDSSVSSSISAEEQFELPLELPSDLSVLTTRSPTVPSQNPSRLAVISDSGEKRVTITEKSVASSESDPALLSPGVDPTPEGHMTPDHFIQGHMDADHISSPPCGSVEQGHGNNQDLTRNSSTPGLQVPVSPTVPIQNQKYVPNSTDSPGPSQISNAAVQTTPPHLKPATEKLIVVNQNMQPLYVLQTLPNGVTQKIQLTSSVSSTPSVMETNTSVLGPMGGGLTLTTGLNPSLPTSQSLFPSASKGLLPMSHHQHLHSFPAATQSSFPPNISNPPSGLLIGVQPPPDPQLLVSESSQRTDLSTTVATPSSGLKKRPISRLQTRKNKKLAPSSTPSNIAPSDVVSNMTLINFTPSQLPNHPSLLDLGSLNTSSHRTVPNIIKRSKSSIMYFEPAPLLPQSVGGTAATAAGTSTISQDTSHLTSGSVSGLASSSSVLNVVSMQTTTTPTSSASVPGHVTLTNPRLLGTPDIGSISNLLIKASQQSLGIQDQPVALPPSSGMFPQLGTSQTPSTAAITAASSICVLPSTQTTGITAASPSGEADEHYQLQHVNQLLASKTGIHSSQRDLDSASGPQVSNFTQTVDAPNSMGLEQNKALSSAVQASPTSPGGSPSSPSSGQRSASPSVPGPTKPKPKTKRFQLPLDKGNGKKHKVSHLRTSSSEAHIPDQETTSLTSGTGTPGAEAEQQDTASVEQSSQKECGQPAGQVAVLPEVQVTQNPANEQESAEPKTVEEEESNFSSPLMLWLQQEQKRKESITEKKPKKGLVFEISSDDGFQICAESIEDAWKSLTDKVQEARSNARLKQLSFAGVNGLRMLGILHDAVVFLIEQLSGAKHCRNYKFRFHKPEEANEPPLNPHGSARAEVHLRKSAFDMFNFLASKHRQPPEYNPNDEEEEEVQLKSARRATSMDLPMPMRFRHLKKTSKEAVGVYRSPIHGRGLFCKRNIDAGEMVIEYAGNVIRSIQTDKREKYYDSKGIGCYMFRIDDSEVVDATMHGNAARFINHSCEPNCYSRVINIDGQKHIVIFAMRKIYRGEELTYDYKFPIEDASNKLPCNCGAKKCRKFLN

Compound | Potency
N=C1CCC(=N)c2c1c(O)c1ccccc1c2O | inconclusive: 39.8 µM [fluorescent, partial curve]
Cc1cc(C)nc(-n2nc(C)c(Oc3ccccc3O)c2C)n1 | inactive
O=c1[nH]c2ccc(S(=O)(=O)N3CCC(Cc4ccccc4)CC3)cc2o1 | inconclusive: 70.8 µM [inhibitor, single point]
O=C(Nc1nc(-c2ccc(S(=O)(=O)N3CCCC3)cc2)cs1)c1cccs1 | inactive
CC(=O)c1sc(NC(=O)CCS(=O)(=O)c2ccccc2)nc1C | inconclusive: 15.8 µM [fluorescent, side channel, single point]
CCOC(=O)N1CCN(C(=O)CN(Cc2ccc(Cl)cc2)S(C)(=O)=O)CC1 | inconclusive: 10 µM [quencher, side channel, single point]
O=c1ccc(/C=C/c2ccccc2)nn1Cc1ccccc1 | inactive
COC(=O)NCc1cc2cc(Cl)ccc2[nH]1 | inactive
Cc1ccc(-n2c(N)cc(=O)nc2SCC(=O)NC2CCCCC2)cc1C | inconclusive: 11.2 µM [quencher, side channel, single point]
CCC(=O)c1cn(CC(=O)O)c2ccccc12 | inconclusive: 7.94 µM [inhibitor, partial curve]
CN=c1nc(-c2ccccc2)n(-c2ccccc2)s1 | inactive
CC(C)(C)[C@H]1C=C(C(=O)N2CCOCC2)O[C@@H](OCc2ccc(CO)cc2)C1 | inconclusive: 11.2 µM [inhibitor, partial curve]
CCc1nnc(NS(=O)(=O)c2ccc(NC(=O)Nc3ccc(OC)cc3)cc2)s1 | inactive
COc1cc(C2NC(=O)C(C#N)=C(Nc3cccc(C)c3)S2)ccc1O (centres undefined) | inconclusive: 35.5 µM [inhibitor, partial curve]
O=C1CC2c3ccccc3C1C1C(=O)N(Cc3ccccc3)C(=O)C21 (centres undefined) | inconclusive: 1.26 µM [fluorescent, side channel, partial curve, poor fit]
Cn1c(CSCc2ccccc2)nnc1SCC(=O)Nc1ccc(C(=O)O)cc1 | inconclusive: 14.1 µM [fluorescent, side channel, full curve, poor fit]
CCOC(=O)Nc1ccc2nc(Sc3ccc(Cl)cc3)sc2c1 | inconclusive: 1 µM [inhibitor, full curve, poor fit]
CC1NC(=O)NC1CCCCC(=O)O (centres undefined) | inactive
CCN1/C(=C/C=C/c2oc3ccc4ccccc4c3[n+]2CC)Oc2ccc3ccccc3c21 | inconclusive: 7.08 µM [fluorescent, side channel, full curve]
O=C(NCCc1csc(-c2cccnc2)n1)c1c(F)cccc1F | inactive
CCCCOc1ccc(C(=O)Nc2ccc(C)cc2[N+](=O)[O-])cc1 | inconclusive: 15.8 µM [fluorescent, side channel, single point]
COc1ccc2c(c1)C(NC(=O)C(F)(F)F)CC2=O (centres undefined) | inactive

Part of the list above in another layout.

| Compound | Potency |
| --- | --- |
| O=c1ccc(/C=C/c2ccccc2)nn1Cc1ccccc1 | inactive |
| COC(=O)NCc1cc2cc(Cl)ccc2[nH]1 | inactive |
| Cc1ccc(-n2c(N)cc(=O)nc2SCC(=O)NC2CCCCC2)cc1C | inconclusive: 11.2 µM [quencher, side channel, single point] |
| CCC(=O)c1cn(CC(=O)O)c2ccccc12 | inconclusive: 7.94 µM [inhibitor, partial curve] |

More entries.

Compound | Potency
CCn1c(N2CCN(S(=O)(=O)CC)CC2)nc2ccccc21 | inconclusive: 89.1 µM [quencher, side channel, single point]
O=c1c(Cc2c(F)cccc2Cl)c(O)ccn1CCCn1ccnc1 | inconclusive: 14.1 µM [inhibitor, single point]
CCOC(=O)c1ccc(NC(C)=O)c([N+](=O)[O-])c1 | inconclusive: 1 µM [inhibitor, full curve, poor fit]
O=c1oc2c3c4c(cc2c(C(F)(F)F)c1CCN1CCOCC1)CCCN4CCC3 | inconclusive: 31.6 µM [fluorescent, single point]
CC(=O)Oc1ccc(/C=C2\C=C(c3ccc(C)cc3)OC2=O)cc1 | inconclusive: 70.8 µM [fluorescent, side channel, single point]
CC1(C)CC(=NOC(=O)c2ccccc2)CC(C)(C)N1O | inconclusive: 70.8 µM [fluorescent, side channel, single point]
O=C1/C(=C\c2cc(Cl)c(O)c(Cl)c2)SC(=S)N1Cc1ccccc1 | inconclusive: 14.1 µM [fluorescent, side channel, single point]
CC(C)c1ccc(NC(=O)N2CCC(c3nc4ccccc4o3)CC2)cc1 | inactive
CCOc1ccccc1N(CC(=O)Nc1ccc(S(=O)(=O)N2CCCC2)cc1)S(C)(=O)=O | inconclusive: 100 µM [quencher, side channel, partial curve, poor fit]
O=C(O)CC1S/C(=N/N=C/c2ccc(-c3ccc(Cl)cc3[N+](=O)[O-])o2)NC1=O (centres undefined) | inconclusive: 31.6 µM [inhibitor, single point]
CN(c1ccccc1)S(=O)(=O)c1cccc(NC(=O)CSc2ncc(C(F)(F)F)cc2Cl)c1 | inconclusive: 15.8 µM [fluorescent, side channel, partial curve, poor fit]
COc1ccc(/C=C(/C#N)C(=O)Nc2ccc(C)cc2C)cc1C(=O)O | inconclusive: 39.8 µM [inhibitor, single point]
CC(=O)[C@@]1(O)CC[C@H]2C3CCC4=CC(=O)CC[C@]4(C)C3CC[C@@]21C (some centres undefined) | inactive
COc1cc(OC)cc(C2C(C#N)=C(N)Oc3n[nH]c(-c4cccnc4)c32)c1 (centres undefined) | inactive
CC(=O)C1C(c2ccc(Br)cc2)c2c(noc2C)CC1(C)O (centres undefined) | inconclusive: 89.1 µM [inhibitor, single point]
C/C(O)=C\c1nc2ccccc2oc1=O | inactive
O=[N+]([O-])c1ccc(OCC(O)CN(C2CCCCC2)C2CCCCC2)cc1 (centres undefined) | inactive
COCCCn1[nH]c2c3c(ccc2c1=O)C(=O)c1ccccc1C3=O | inconclusive: 11.2 µM [quencher, side channel, full curve, poor fit]
CCOC(=O)N1CCN(C(=O)c2c(Cl)cnn2C)CC1 | inconclusive: 15.8 µM [fluorescent, side channel, partial curve]
COc1ccc(CN2C(=O)c3cccnc3C2=O)cc1S(=O)(=O)N(C)c1ccc(C)cc1 | inconclusive: 39.8 µM [quencher, side channel, single point]
COc1cc(NC(=O)COC(=O)c2n[nH]c3ccccc23)c(C)cc1[N+](=O)[O-] | inactive
COc1ccc(S(=O)(=O)N2CCN(c3nc(C)cc(C)n3)CC2)cc1 | inconclusive: 31.6 µM [fluorescent, side channel, partial curve]

Compound | Potency
O=C(CSc1ncnc2scc(-c3ccccc3)c12)N1CCN(Cc2ccc3c(c2)OCO3)CC1 | inactive
COc1ccc(Cn2ccnc2SCC(=O)Nc2nnc(C)s2)cc1 | inconclusive: 10 µM [fluorescent, side channel, single point]
Cc1ccc2c(c1)c1nc3ccccc3nc1n2C | inconclusive: 39.8 µM [fluorescent, side channel, single point]
CC1CN(c2nc3ccccc3nc2C(C#N)C(=O)OC2CCCCC2)CC(C)O1 (centres undefined) | inconclusive: 70.8 µM [fluorescent, side channel, single point]
Cc1cc(NC(=O)C2CC(=O)OC2c2ccccc2)no1 (centres undefined) | inconclusive: 3.16 µM [fluorescent, side channel, full curve, poor fit]
Cc1ccc2[nH]c(=O)c(CN(CCCN(C)C)C(=O)Nc3cccc(Cl)c3)cc2c1 | inconclusive: 35.5 µM [quencher, side channel, single point]
COC(=O)c1c(SCc2ccc(C#N)cc2)nc(=O)[nH]c1C | inconclusive: 35.5 µM [fluorescent, side channel, single point]
O=C(c1cccc(Br)c1)N1CCN(S(=O)(=O)N2CCCCCC2)CC1 | inconclusive: 14.1 µM [fluorescent, side channel, single point]
CCCc1nn(C)c2c(=O)[nH]c(-c3cc(S(N)(=O)=O)ccc3OCC)nc12 | inconclusive: 11.2 µM [inhibitor, single point]
COC(=O)c1ccccc1S(=O)(=O)N(Cc1cc2ccc(OC)cc2[nH]c1=O)CC1CCCO1 (centres undefined) | inactive
CC1=C(C(N)=O)C(c2ccccc2F)n2nc(CCCO)nc2N1 (centres undefined) | inconclusive: 31.6 µM [fluorescent, partial curve]
O=C1C2C3c4ccccc4C(c4ccccc43)[C@@H]2C(=O)N1c1nc(-c2ccccc2)cs1 (some centres undefined) | inactive
NNC(=O)CN1C(c2ccc(Cl)cc2)=Nc2ccc(Br)cc2C1c1ccccc1 (centres undefined) | inconclusive: 10 µM [inhibitor, full curve, poor fit]
CCOC(=O)C1CCCN(C(=O)c2cc3cc(OC)c(OC)cc3[nH]2)C1 (centres undefined) | inconclusive: 10 µM [inhibitor, single point]
c1ccc2c(NCCCN3CCOCC3)c3ccccc3nc2c1 | inconclusive: 31.6 µM [inhibitor, partial curve]
COc1ccc2[nH]c(O)c(N=O)c2c1 | inactive
O=[N+]([O-])c1ccc(C2=Nc3cc(Cl)ccc3OC2)cc1 | inconclusive: 63.1 µM [fluorescent, side channel, single point]
C=CCNC(=O)CN1c2cccc3cccc(c23)S1(=O)=O | inconclusive: 63.1 µM [quencher, side channel, single point]
Cc1ccc(NC(=S)c2nc3ccccc3[nH]2)cc1 | inactive
CCCCCCC(=O)Nc1nc(C)c(-c2csc(Nc3ccc(Cl)cc3)n2)s1 | inconclusive: 14.1 µM [fluorescent, side channel, partial curve]
